According to PubChem BioAssay AID1347076 (National Center for Advancing Translational Sciences (NCATS), 2019):
The campaign covered roughly 400,000 compounds. About 13,000 (3.2%) were called active. The inconclusive results got no clear call from the source; some entries with a clear call stand among them for comparison. The call rests on the fitted dose curve; in most records, active means well fitted cell-killing curve with a large enough effect; inconclusive means small, poorly fitted or top-dose-only effect, or effect the other way; inactive means flat fitted curve, though single readings scatter. A potency beside an inconclusive call is a rough fit, not a confirmed value.
On the % scale 0 is the no-effect control and ±100 the full control effect; potency means the concentration at half of the fitted maximal effect.

Assay: qHTS assay for MDR1-selective chemotherapeutics: Primary screen using the drug-selected MDR subline cells KB-V1; further: nearly all actives have a fitted effect of over 60% in size
Conditions: KB-V1 MDR cells viability, CellTiter-Glo, 72 h; activity change, negative = cytotoxicity: at 46.1 µM (top of the series)
Outline: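 In this primary screen, KB-V1 cells overexpressing P-gp are incubated with library compounds (lowest to highest concentration) for 72 h at 37 degrees C before a luminescent ATP viability read.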
With O=C(CSc1nnnn1-c1ccc(F)cc1F)Nc1ccccc1F the Potency was inconclusive: 16.4 µM [rising, partial curve]. In the case of CC(=O)c1ccc(N2CCN(C(=O)C3CCN(C(=O)Nc4ccccc4)CC3)CC2)cc1, the activity change, negative = cytotoxicity is reported as inconclusive: -3.81%. For O=C(NCc1ccccc1F)c1cc(=O)[nH]c2ccccc12, the “activity change, negative = cytotoxicity” value was inactive: -1.41%. With O=C(CSc1nnc(-c2ccc(F)cc2)c2ccccc12)Nc1cccc(Cl)c1 the Potency was inconclusive: 13 µM [cytotoxic, partial curve]. For FC(F)Oc1ccc(-c2csc(=Nc3cccnc3)n2CC2CCCO2)cc1 (centres undefined), the “activity change, negative = cytotoxicity” value was inactive: -21.3%. In the case of COc1ccc(N2CC(C(=O)Nc3ccccc3C(=O)NCc3ccco3)CC2=O)cc1 (centres undefined), the “activity change, negative = cytotoxicity” value is reported as inactive: -28.8%. With COc1cc2oc(=O)c3c(c2cc1OCC(=O)c1c(C)n(C)c2ccccc12)CCCC3 the Potency was inconclusive: 18.4 µM [cytotoxic, partial curve, poor fit]. With Cc1cccc(C)c1OCc1n[nH]c(=S)n1N the “activity change, negative = cytotoxicity” value was inactive: 19.8%. For Cc1ccc[n+](CC(=O)/C=C2\N(C)c3ccccc3C2(C)C)c1, the Potency was inconclusive: 4.61 µM [rising, single point]. For O=C(O)c1cc(Cl)ccc1-c1ccc(/C=C/c2cc(C(F)(F)F)[nH]c(=O)n2)o1, the Potency was inconclusive: 6.51 µM [rising, partial curve, poor fit]. In the case of CCn1c(=O)c(C(=O)CN2CCCc3ccccc32)c(N)n(Cc2ccccc2)c1=O, the Potency is reported as inconclusive: 23.1 µM [cytotoxic, partial curve, poor fit]. For CCOCCCn1c(SCc2nc3ccccc3s2)nc2ccccc2c1=O, the Potency was active: 2.31 µM. In the case of COc1cc(NC(=O)CCCNC(=O)Cn2cnc3sc(C)c(C)c3c2=O)cc(OC)c1OC, the activity change, negative = cytotoxicity is reported as inconclusive: 9%. With COc1ccccc1NC(=O)CSc1ncc(CO)n1Cc1ccc(F)cc1 the activity change, negative = cytotoxicity was inconclusive: 23.8%. With Cn1c(=O)c2c(-c3ccccc3)n(-c3cc([N+](=O)[O-])ccc3N)cc2n(C)c1=O the Potency was inconclusive: 29.1 µM [cytotoxic, single point]. With Cc1cc2ccccc2c(=O)n1CC(=O)N1CCN(c2cccc(Cl)c2)CC1 the “activity change, negative = cytotoxicity” value was inactive: -14.1%. In the case of Cc1ccc(C(=O)Nc2nnc(SCC(=O)N3CCCc4ccccc43)s2)cc1, the Potency is reported as active: 23.1 µM. With O=C(COC(=O)Cc1ccccc1F)NCc1ccccc1Cl the “activity change, negative = cytotoxicity” value was inactive: 13.1%. With Cc1ccccc1NC(=O)Cn1c(=O)n(Cc2ccco2)c(=O)c2ccc(C(=O)NC3CCCC3)cc21 the Potency was inconclusive: 29.1 µM [cytotoxic, single point]. In the case of COc1ccccc1NC(=S)NNC(=O)c1ccc(O)cc1, the Potency is reported as inconclusive: 16.4 µM [rising, partial curve, poor fit]. With Cc1cccc(C(=O)NC(=S)NNC(=O)COc2ccc(Cl)cc2)c1 the Potency was inconclusive: 29.1 µM [cytotoxic, single point]. With O=c1c2ccccc2nc(/C=C/c2cccnc2)n1Cc1ccccc1 the Potency was inconclusive: 16.4 µM [cytotoxic, single point]. With Cc1ccc(NC(=S)N/N=C/c2c(Cl)cccc2Cl)c(C)c1 the Potency was active: 1.16 µM. For COc1ccccc1-c1nnc2n1N=C(c1ccc(O)c(O)c1)CS2, the Potency was inconclusive: 0.366 µM [cytotoxic, partial curve, poor fit]. For OCCNc1nc(Nc2ccc(Br)cc2)nc2ccccc12, the Potency was inconclusive: 29.1 µM [cytotoxic, single point]. In the case of CC1(C)Oc2ccc(C(=O)Nc3ccccc3)cc2N(CC#N)C1=O, the Potency is reported as inconclusive: 29.1 µM [rising, single point]. For C#CCOCCOCCOCCNc1nc(N2CCN(C(=O)Cn3cc(CC(C)O)nn3)CC2)nc(N2CCN(C(=O)[C@H]([C@@H](C)O)n3cc(CCCCN)nn3)CC2)n1 (some centres undefined), the Potency was inconclusive: 29.1 µM [rising, single point]. In the case of O=C(COC(=O)c1ccc(NS(=O)(=O)c2ccc3c(c2)OCCO3)cc1)NC1CCS(=O)(=O)C1 (centres undefined), the Potency is reported as inconclusive: 29.1 µM [rising, single point]. For C[C@H](CO)N1C[C@H](C)[C@@H](CN(C)C(=O)NC2CCCCC2)Oc2ccc(NS(=O)(=O)c3ccc(F)cc3)cc2C1=O, the “activity change, negative = cytotoxicity” value was inactive: -5.98%. With COc1ccc(S(=O)(=O)Nc2c(C(=O)O)[nH]c3ccc(OC)cc23)c(OC)c1 the activity change, negative = cytotoxicity was inconclusive: -4.12%. With O=C1OC(Nc2ncccn2)c2ccccc21 (centres undefined) the “activity change, negative = cytotoxicity” value was inactive: 6.37%. In the case of Cc1ccc2nc(C(F)(F)F)c(C#N)c(N)c2c1, the Potency is reported as inconclusive: 29.1 µM [cytotoxic, single point]. For COc1ccccc1-c1noc(CCC(=O)Nc2cccc(C(F)(F)F)c2)n1, the Potency was active: 20.6 µM. In the case of O=C(Nc1ccc(-c2nnc(-c3ccccc3)o2)cc1)C(F)(F)F, the activity change, negative = cytotoxicity is reported as inconclusive: -86.2%. With O=C(CN1CCN(Cc2ccccc2Cl)CC1)N=Nc1c(O)[nH]c2ccccc12 the Potency was active: 14.6 µM. With COc1ccc(CN(C)Cc2nc3cc(OC)c(OC)cc3c(=O)[nH]2)c(OC)c1 the Potency was inconclusive: 3.66 µM [cytotoxic, partial curve, poor fit]. With FC(F)(F)c1cccc(OCCN2CCN(Cc3ccccc3)CC2)c1 the Potency was inconclusive: 20.6 µM [cytotoxic, partial curve, poor fit]. In the case of O=S(=O)(c1ccccc1Cl)N1CCCC1c1nc(-c2ccccc2Cl)no1 (centres undefined), the Potency is reported as inconclusive: 16.4 µM [cytotoxic, single point]. With COC(=O)c1[nH]c2ccc(C)cc2c1NC(=O)CN1CCN(c2ccc(F)cc2)CC1 the Potency was inconclusive: 28.2 µM [cytotoxic, single point]. In the case of Nc1ncnc2c1ncn2[C@@H]1O[C@H](C(=O)N[C@H]2c3ccccc3C[C@H]2OC=O)[C@@H](O)[C@H]1O, the “activity change, negative = cytotoxicity” value is reported as inactive: 13%. For C=CCN(c1ccccc1)S(=O)(=O)c1cccc(C(=O)Nc2nc3ccccc3[nH]2)c1, the “activity change, negative = cytotoxicity” value was inactive: -14.8%. With CCCC(=O)N1c2ccccc2C(=C2SC(C(=O)OC)=C(C(=O)OC)S2)C(=S)C1(C)C the Potency was inconclusive: 23.1 µM [cytotoxic, single point]. For Cc1ccccc1NC(=O)CSCn1nnc2c(=O)[nH]c(Cc3ccc(F)cc3)nc21, the “activity change, negative = cytotoxicity” value was inactive: 26.1%. With CCCCN1CNC(=S)N(CCc2ccc(OCC)c(OCC)c2)C1 the Potency was inconclusive: 9.2 µM [cytotoxic, partial curve].
